Hit rate of the full screen: of about 300,000 compounds, about 5,400 (1.8%) were called active. The inconclusive results got no clear call from the source; some entries with a clear call stand among them for comparison. Calls come from the whole dose curve; tested in HEK293 cells. Where the call is inconclusive, the potency comes from a doubtful curve fit.
assay: qHTS for inhibitors of binding or entry into cells for Marburg Virus; conditions: Marburg virus pseudotyped entry inhibition, cell reporter; activity change, negative = inhibition: at 37.8 µM (top of the series) unless noted
% is set by controls: 0 for no effect and ±100 for the full control effect; potency is the fitted concentration of half-maximal effect.

Structure (SMILES) | activity change, negative = inhibition | Potency
CC(OC(=O)[C@@H]1CCCN1C(=O)c1cccs1)C(=O)Nc1cccc([N+](=O)[O-])c1 (some centres undefined) | inactive: 24.7% | –
O=C(NCCO)C1CCN(S(=O)(=O)c2ccc(F)cc2)CC1 | – | inconclusive: 6.31 µM [inhibitor, single point]
COc1cc(/C=N/Nc2nc3c(c(=O)n(C)c(=O)n3C)n2Cc2ccccc2)ccc1OC(=O)c1ccco1 | – | inconclusive: 20 µM [inhibitor, partial curve, poor fit]
COC(=O)NCC=Cc1nc(CCCO)co1 | inactive: -24% [at 14.2 µM] | –
c1ccc(CCc2nc(-c3ccccn3)no2)cc1 | inactive: 18.6% | –
Cc1cc(=O)oc2cc(OCC(=O)OCC(=O)Nc3c(C)n(C)n(-c4ccccc4)c3=O)ccc12 | – | inconclusive: 6.31 µM [inhibitor, single point]
COc1ccc(NC(=O)Nc2ccccc2)cc1S(=O)(=O)N1CCCCC1 | inactive: -18.6% [at 46.1 µM] | –
COC(=O)c1ccc(CSc2nnc(-c3ccncc3)n2Cc2ccccc2)o1 | – | inconclusive: 3.55 µM [inhibitor, single point]
Cn1c(CSc2nc3ccccc3s2)nc2ccccc21 | – | inconclusive: 29.1 µM [activator, single point]
N#CC1=C(N)Oc2cc(O)ccc2C1c1cccs1 (centres undefined) | inactive: -19.2% | –
COc1ccc(CCNC(=O)c2cc(Nc3cc(C)cc(C)c3)nc3ccccc23)cc1OC | – | inconclusive: 28.2 µM [inhibitor, single point]
Cc1cccc(N2CCN(C(=O)CCC(=O)N3Cc4ccccc4Oc4ncccc43)CC2)c1C | – | inconclusive: 14.1 µM [inhibitor, single point]
O=C1/C(=C\c2ccco2)SC(=S)N1C1CCS(=O)(=O)C1 (centres undefined) | – | inconclusive: 11.2 µM [inhibitor, partial curve, poor fit]
CCOc1cc(CNC(=O)CCCn2c(=O)c3cccn3c3cccnc32)cc(OCC)c1OCC | – | inconclusive: 15.8 µM [inhibitor, partial curve, poor fit]
O=C(CN(CC1CCCO1)C(=O)CNS(=O)(=O)c1ccccc1)NCCc1ccccc1 (centres undefined) | – | inconclusive: 35.5 µM [activator, single point]
Cc1ccc(/C=N/n2c(-c3cccs3)n[nH]c2=S)cc1 | – | inconclusive: 0.126 µM [inhibitor, full curve, poor fit]
Cc1ccnc(NC(=O)CN(C)S(=O)(=O)c2cccc3nsnc23)c1 | – | inconclusive: 3.98 µM [activator, full curve]
O=C(/C=C/Nc1ccc(F)c(F)c1)c1cccs1 | – | inconclusive: 4.47 µM [activator, partial curve, poor fit]
COc1ccc(N2CCN(c3c4c(nc5nncn35)CCC4)CC2)cc1 | – | inconclusive: 35.5 µM [inhibitor, single point]
CCn1cc(C(=O)N2CCN(c3ccc(F)cc3)CC2)c(=O)c2cc(S(=O)(=O)N3CCOCC3)ccc21 | inactive: 9.67% [at 46.1 µM] | –
COC(=O)CSc1nc(N2CCOCC2)c2c(c1C#N)CC(C)(C)OC2 | – | inconclusive: 8.91 µM [inhibitor, partial curve, poor fit]
COc1ccc(S(=O)(=O)N2CCCCCC2)cc1C(=O)NCCOc1ccc(C)cc1 | – | inconclusive: 15.8 µM [inhibitor, single point]

Looked up above.
Potency, `CCOc1cc(CNC(=O)CCCn2c(=O)c3cccn3c3cccnc32)cc(OCC)c1OCC` reads inconclusive: 15.8 µM [inhibitor, partial curve, poor fit]
Potency, `Cc1ccnc(NC(=O)CN(C)S(=O)(=O)c2cccc3nsnc23)c1` reads inconclusive: 3.98 µM [activator, full curve]
Potency, `COC(=O)c1ccc(CSc2nnc(-c3ccncc3)n2Cc2ccccc2)o1` reads inconclusive: 3.55 µM [inhibitor, single point]

The list continues:

Structure (SMILES) | activity change, negative = inhibition | Potency
CCOC(=O)c1ccc(NC(=O)CSc2nc(=O)n(CCN3CCOCC3)c3c2CCC3)cc1 | inactive: -19.9% | –
O=C(N1CCOCC1)N1CCN(C(c2ccccc2)c2ccccc2)CC1 | inactive: -8.52% | –
O=C(CSc1nc2ccc([N+](=O)[O-])cc2[nH]1)NC1CCCCC1 | – | inconclusive: 16.4 µM [inhibitor, partial curve, poor fit]
O=C(NCCCN1CCCC1=O)c1csc2ccccc12 | inactive: 4.8% | –
Cc1cc(C(=O)Nc2ccccc2)oc1C | – | inconclusive: 35.5 µM [inhibitor, single point]
O=C(CCNS(=O)(=O)c1ccc(Br)cc1)NCc1ccco1 | – | inconclusive: 22.4 µM [activator, single point]
CCC(C)Nc1nc(Cl)nc(NCCOc2ccccc2)n1 (centres undefined) | – | inconclusive: 0.112 µM [inhibitor, full curve, poor fit]
N#CCCCSc1ncccc1-c1nc2ccccc2[nH]1 | inactive: 4.43% | –
N#CC1=C(N)Oc2cc(Nc3ccccc3)ccc2C1c1ccncc1 (centres undefined) | – | active: 17.8 µM
NC(CSS(=O)(=O)O)=NCCC12CC3CC(CC(O)(C3)C1)C2 | – | inconclusive: 1.26 µM [activator, full curve]
C[C@]12CC[C@H]3C(=CCc4cc(O)ccc43)[C@@H]1CCC2=O | inactive: 9.62% | –
COc1ccccc1N1C(=O)c2ccc(C(=O)Nc3ccc(C(=O)O)cc3)cc2C1=O | inactive: 2.33% | –
Cc1cc(Br)cc(C)c1NC(=O)c1ccccc1[N+](=O)[O-] | – | inconclusive: 17.8 µM [inhibitor, single point]
Cc1ccc(C(=O)NNC(=O)c2cccs2)cc1 | – | inconclusive: 3.55 µM [activator, single point]
O=C(Nc1ccc2c(c1)OCO2)c1ccc(Cl)s1 | – | inconclusive: 0.13 µM [activator, full curve]
CCOC(=O)Cn1c(CN(Cc2ccccc2)Cc2ccccc2)nc2c1c(=O)n(C)c(=O)n2C | inactive: -15.8% | –
CCOC(=O)c1ccccc1NC(=O)CN1C(=O)CC(c2ccco2)Sc2ccccc21 (centres undefined) | – | inconclusive: 14.1 µM [inhibitor, single point]
CC1(C)COC(/C=C/c2ccc([N+](=O)[O-])cc2)=N1 | – | inconclusive: 20.6 µM [inhibitor, partial curve, poor fit]
CC(C)c1ccc(CCNC(=O)c2cccc(S(=O)(=O)N3CCN(C)CC3)c2)cc1 | – | inconclusive: 0.447 µM [activator, full curve, poor fit]
COCCNC(=S)N(c1ccccc1)C(C)C | inconclusive: 57.7% [activator] [at 46.1 µM] | –
COc1ccccc1N(C(=O)c1snc(C(N)=O)c1N)C(C(=O)NC1CCCCC1)c1cccc(OC)c1OC (centres undefined) | – | inconclusive: 10 µM [inhibitor, partial curve, poor fit]
CCN(CC)c1ccc(C(=O)N2CCN(Cc3ccccc3)CC2)cc1 | – | inconclusive: 5.8 µM [inhibitor, full curve, poor fit]
